Data on 2 substances can be found in article PMC1931443.

Sequences of proteins named here, by UniProt entry; tags and fusion partners are left off.
UniProt Q9QZ59: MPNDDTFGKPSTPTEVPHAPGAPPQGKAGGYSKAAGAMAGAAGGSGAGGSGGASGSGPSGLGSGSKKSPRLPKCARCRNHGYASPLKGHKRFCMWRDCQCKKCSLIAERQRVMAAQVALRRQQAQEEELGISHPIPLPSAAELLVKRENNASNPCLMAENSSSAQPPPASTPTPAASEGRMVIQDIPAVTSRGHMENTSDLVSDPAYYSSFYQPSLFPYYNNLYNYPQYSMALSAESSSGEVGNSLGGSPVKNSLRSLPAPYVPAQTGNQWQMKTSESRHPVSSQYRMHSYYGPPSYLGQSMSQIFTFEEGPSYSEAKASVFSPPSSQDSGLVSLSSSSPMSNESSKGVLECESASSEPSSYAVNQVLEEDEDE
UniProt Q80WT2: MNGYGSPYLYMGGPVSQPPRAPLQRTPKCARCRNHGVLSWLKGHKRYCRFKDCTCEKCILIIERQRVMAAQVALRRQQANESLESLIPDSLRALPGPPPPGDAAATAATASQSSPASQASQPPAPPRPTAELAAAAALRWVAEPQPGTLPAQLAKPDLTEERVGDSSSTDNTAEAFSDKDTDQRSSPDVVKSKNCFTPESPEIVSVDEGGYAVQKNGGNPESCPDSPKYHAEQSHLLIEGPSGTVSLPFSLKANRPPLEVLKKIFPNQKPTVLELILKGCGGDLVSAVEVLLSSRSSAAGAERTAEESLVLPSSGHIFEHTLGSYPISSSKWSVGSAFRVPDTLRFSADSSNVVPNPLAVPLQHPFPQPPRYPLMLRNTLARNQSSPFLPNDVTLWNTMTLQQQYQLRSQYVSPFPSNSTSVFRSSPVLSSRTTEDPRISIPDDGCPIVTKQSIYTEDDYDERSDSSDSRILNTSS
UniProt A2A9A2: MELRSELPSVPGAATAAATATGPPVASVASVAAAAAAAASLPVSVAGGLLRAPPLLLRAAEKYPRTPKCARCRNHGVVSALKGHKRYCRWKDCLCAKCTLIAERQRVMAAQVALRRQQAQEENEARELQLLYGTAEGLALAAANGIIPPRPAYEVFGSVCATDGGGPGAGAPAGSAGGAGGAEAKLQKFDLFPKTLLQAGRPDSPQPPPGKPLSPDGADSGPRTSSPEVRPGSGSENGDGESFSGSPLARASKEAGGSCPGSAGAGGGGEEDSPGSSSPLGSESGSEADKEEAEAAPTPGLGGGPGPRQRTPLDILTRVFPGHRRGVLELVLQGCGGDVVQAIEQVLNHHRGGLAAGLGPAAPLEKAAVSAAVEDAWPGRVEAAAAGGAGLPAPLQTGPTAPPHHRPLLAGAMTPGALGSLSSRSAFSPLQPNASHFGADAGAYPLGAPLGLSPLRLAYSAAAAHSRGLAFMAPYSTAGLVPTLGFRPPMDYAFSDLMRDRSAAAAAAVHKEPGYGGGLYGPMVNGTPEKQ

These are yes or no findings as the source states them, for the method shown. Some binding calls cover weakened binding; strength is not graded here.

The target in the experiment is DMRT1 of the heterodimerization gel shifts (complex not affected by the 9E10 anti-Myc antibody) (mouse) (UniProt Q9QZ59). In words: native gel or EMSA; DMRT1 alone or together with a Myc-tagged DMRT protein (in vitro translated) on labelled DMRT1 consensus probe; composition of the DNA/protein complexes tested by supershift with DMRT1 antibody or anti-Myc 9E10; dimers seen on DNA. (In EMSA bound probe runs differently from free probe, usually more slowly.)

Take “DMRT3 (mouse), Myc epitope tagged, in vitro translated (from UniProt Q80WT2 1-476)”: the binding entry is “binds”.

As for “DMRT5 (mouse), Myc epitope tagged, in vitro translated (from UniProt A2A9A2 1-531)”, the binding entry is reported as “binds”.
